Data as given in publication PMC11762313.
Results are given in words; binding and its absence hold for the method and conditions named. Binding seen in cells or lysates may run through a third protein. Some results given as binding are weak or reduced against the parent protein; the word gives no strength.

The chains behind the UniProt entries cited, without tags or fusion partners.
UniProt Q92793: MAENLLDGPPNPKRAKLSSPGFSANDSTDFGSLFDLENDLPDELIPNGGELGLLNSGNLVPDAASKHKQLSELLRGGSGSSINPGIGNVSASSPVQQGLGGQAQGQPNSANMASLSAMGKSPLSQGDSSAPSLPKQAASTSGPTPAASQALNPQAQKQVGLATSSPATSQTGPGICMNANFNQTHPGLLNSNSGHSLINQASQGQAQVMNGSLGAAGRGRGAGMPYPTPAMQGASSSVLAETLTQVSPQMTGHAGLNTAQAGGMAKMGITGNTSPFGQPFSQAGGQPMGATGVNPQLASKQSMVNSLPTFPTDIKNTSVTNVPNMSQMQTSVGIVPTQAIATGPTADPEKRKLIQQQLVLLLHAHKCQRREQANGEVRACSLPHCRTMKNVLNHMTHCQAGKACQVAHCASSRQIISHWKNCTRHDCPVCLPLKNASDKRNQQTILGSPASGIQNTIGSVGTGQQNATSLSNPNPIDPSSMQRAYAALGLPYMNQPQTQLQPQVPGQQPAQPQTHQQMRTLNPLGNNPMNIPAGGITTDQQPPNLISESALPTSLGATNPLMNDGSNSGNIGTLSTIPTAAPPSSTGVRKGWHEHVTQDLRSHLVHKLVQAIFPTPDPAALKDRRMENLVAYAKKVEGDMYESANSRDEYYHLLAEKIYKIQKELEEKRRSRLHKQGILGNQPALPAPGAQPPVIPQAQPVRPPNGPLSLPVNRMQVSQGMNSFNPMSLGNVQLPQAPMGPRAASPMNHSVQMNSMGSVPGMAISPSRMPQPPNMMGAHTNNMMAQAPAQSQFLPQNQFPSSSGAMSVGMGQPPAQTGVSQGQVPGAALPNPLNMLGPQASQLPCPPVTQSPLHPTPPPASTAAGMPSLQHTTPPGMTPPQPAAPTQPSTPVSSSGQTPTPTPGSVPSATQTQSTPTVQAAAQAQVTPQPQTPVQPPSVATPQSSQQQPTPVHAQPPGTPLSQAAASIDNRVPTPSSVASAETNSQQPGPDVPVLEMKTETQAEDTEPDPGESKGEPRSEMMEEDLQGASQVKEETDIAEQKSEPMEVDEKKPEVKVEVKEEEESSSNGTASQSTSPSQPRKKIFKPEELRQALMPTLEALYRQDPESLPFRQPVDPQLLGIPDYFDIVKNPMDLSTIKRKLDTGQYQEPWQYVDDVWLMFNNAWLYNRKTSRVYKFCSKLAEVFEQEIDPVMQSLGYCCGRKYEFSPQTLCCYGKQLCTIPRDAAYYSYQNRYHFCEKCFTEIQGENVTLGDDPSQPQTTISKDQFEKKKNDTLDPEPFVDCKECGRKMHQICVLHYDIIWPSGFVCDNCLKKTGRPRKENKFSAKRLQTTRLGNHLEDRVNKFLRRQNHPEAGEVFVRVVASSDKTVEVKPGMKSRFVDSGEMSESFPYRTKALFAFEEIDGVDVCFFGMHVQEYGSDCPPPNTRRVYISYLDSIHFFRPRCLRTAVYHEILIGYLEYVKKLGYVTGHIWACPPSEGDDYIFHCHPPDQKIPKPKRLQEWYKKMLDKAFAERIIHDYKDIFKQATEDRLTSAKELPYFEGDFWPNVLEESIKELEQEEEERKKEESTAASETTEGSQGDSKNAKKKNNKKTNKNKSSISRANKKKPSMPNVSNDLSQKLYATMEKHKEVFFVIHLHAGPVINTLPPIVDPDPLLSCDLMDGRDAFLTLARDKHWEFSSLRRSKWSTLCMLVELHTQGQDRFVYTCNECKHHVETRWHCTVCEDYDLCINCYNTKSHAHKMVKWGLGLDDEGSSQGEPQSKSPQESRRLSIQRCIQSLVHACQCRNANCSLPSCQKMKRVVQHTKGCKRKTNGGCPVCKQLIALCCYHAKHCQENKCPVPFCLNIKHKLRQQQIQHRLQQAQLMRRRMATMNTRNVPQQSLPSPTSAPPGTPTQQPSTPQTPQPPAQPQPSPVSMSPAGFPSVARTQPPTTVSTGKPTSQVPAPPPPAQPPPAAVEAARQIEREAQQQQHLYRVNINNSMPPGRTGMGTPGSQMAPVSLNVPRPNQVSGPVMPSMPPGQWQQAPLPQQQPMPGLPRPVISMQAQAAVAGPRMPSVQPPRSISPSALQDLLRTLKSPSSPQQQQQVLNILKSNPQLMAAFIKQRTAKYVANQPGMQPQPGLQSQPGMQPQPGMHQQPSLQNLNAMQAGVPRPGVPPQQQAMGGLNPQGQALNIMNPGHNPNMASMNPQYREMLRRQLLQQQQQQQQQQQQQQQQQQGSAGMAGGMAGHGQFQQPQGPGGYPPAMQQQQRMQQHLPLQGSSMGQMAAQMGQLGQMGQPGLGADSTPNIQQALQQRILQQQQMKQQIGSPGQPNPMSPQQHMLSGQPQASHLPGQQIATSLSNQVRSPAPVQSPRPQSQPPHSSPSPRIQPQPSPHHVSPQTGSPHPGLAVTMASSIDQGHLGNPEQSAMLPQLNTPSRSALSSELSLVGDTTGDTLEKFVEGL

B1: SIRT2, endogenous in 293T cells (protein, UniProt Q8IXJ6 1-389)
chain: MAEPDPSHPLETQAGKVQEAQDSDSDSEGGAAGGEADMDFLRNLFSQTLSLGSQKERLLDELTLEGVARYMQSERCRRVICLVGAGISTSAGIPDFRSPSTGLYDNLEKYHLPYPEAIFEISYFKKHPEPFFALAKELYPGQFKPTICHYFMRLLKDKGLLLRCYTQNIDTLERIAGLEQEDLVEAHGTFYTSHCVSASCRHEYPLSWMKEKIFSEVTPKCEDCQSLVKPDIVFFGESLPARFFSCMQSDFLKVDLLLVMGTSLQVQPFASLISKAPLSTPRLLINKEKAGQSDPFLGMIMGLGGGMDFDSKKAYRDVAWLGECDQGCLALAELLGWKKELEDLVRREHASIDAQSGAGVPNPSTSASPKKSPPPAKDEARTTEREKPQ

Experiments:
[1] = target: T1, CLYBL in 293T cells (co-IP with CBP) (UniProt Q8N0X4); experiment: co-IP; CBP and CLYBL in 293T cell lysate; endogenous or transfected not stated; IP lysis buffer, beads 12 h at 4 °C; bait not stated
T1 sequence: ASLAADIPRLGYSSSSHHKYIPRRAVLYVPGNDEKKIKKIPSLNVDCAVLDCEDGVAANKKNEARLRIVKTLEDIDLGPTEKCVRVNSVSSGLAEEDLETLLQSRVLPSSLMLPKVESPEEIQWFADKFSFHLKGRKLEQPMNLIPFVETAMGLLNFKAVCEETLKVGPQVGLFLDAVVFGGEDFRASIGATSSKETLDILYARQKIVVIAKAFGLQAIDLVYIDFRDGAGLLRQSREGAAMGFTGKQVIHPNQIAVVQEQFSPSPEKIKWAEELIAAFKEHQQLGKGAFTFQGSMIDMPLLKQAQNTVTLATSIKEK

[2] = target: T2, CLYBL, endogenous in 293T cells (human (endogenous in HEK293T)) (UniProt Q8N0X4); experiment: co-IP; endogenous proteins in 293T cell lysate; IP lysis buffer, antibody 3 h, then protein A/G magnetic beads 12 h at 4 °C; bait not stated
T2 sequence: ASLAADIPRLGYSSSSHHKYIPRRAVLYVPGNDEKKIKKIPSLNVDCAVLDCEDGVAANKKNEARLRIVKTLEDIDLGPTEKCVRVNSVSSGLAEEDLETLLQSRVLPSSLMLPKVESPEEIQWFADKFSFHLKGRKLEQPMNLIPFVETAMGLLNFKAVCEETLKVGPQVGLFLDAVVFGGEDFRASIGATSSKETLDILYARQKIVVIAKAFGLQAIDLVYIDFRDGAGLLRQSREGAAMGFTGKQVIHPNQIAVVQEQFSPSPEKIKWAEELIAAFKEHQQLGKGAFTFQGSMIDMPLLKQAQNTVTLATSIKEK

binding [1]	binding [2]	Molecule
binds	–	CBP in 293T cells (from UniProt Q92793 1-2442)
–	binds	B1
